Data as given in paper PMC3541234, “Functional Characterization of a Chimeric Soluble Fas Ligand Polymer with In Vivo Anti-Tumor Activity” (PLoS ONE, 2013).
No constants are given. Whether binding was seen depends on the method and setting. Some entries that bind do so weakly or less than the wild type. Values belong to the binder of their own block, whether it stands above or below them.

Experiments:
Test in all cases: native gel or EMSA; BN-PAGE, 4-18% acrylamide gradient, non-reducing, 4 C overnight; COS supernatants; FasL detected with mAb G247; compared with SDS-PAGE under reducing conditions
[1] = target: pFasL (polymeric soluble FasL; IgFasL chimera: Ig module of gp190 fused to the extracellular domain of hFasL) (UniProt P42702)
[2] = target: D2FasL (D2 module of gp190 fused to the extracellular domain of hFasL) (UniProt P42702)
[3] = target: D1IgD2FasL (D1IgD2 modules of gp190 fused to the extracellular domain of hFasL) (UniProt P42702)

- binding [1]: binds
B1: pFasL (polymeric soluble FasL; IgFasL chimera: Ig module of gp190 fused to the extracellular domain of hFasL) (ligand, UniProt P42702 246-328, looked up)
chain: WIPDSQTKVFPQDKVILVGSDITFCCVSQEKVLSALIGHTNCPLIHLDGENVAIKIRNISVSASSGTNVVFTTEDNIFGTVIFQKELAELRESTSQMHTASSLEKQIGHPSPPPEKKELRKVAHLTGKSNSRSMPLEWEDTYGIVLLSGVKYKKGGLVINETGLYFVYSKVYFRGQSCNNLPLSHKVYMRNSKYPQDLVMMEGKMMSYCTTGQMWARSSYLGAVFNLTSADHLYVNVSELSLVNFEESQTFFGLYKL
notes: Ig-like (Ig) module of the LIF receptor gp190, amino acids 246 to 328; extracellular domain of human FasL (hFasL), amino acids 108 to 281; source: COS cells, transiently transfected (pED4 vector), supernatant; for SPR in Opti-MEM, concentrated 100 times, dialysed against PBS; copies: 12

- binding [2]: binds
B2: D2FasL (D2 module of gp190 fused to the extracellular domain of hFasL) (ligand, UniProt P42702 329-542, looked up)
chain: AGYPPDTPQQLNCETHDLKEIICSWNPGRVTALVGPRATSYTLVESFSGKYVRLKRAEAPTNESYQLLFQMLPNQEIYNFTLNAHNPLGRSQSTILVNITEKVYPHTPTSFKVKDINSTAVKLSWHLPGNFAKINFLCEIEIKKSNSVQEQRNVTIKGVENSSYLVALDKLNPYTLYTFRIRCSTETFWKWSKWSNKKQHLTTEASPSKGPDTWQKELAELRESTSQMHTASSLEKQIGHPSPPPEKKELRKVAHLTGKSNSRSMPLEWEDTYGIVLLSGVKYKKGGLVINETGLYFVYSKVYFRGQSCNNLPLSHKVYMRNSKYPQDLVMMEGKMMSYCTTGQMWARSSYLGAVFNLTSADHLYVNVSELSLVNFEESQTFFGLYKL
notes: extracellular domain of human FasL (hFasL), amino acids 108 to 281; source: COS cells, transiently transfected (pED4 vector), supernatant; for SPR in Opti-MEM, concentrated 100 times, dialysed against PBS

- binding [3]: binds
B3: D1IgD2FasL (D1IgD2 modules of gp190 fused to the extracellular domain of hFasL) (ligand, UniProt P42702 49-542, looked up)
chain: APHDLKCVTNNLQVWNCSWKAPSGTGRGTDYEVCIENRSRSCYQLEKTSIKIPALSHGDYEITINSLHDFGSSTSKFTLNEQNVSLIPDTPEILNLSADFSTSTLYLKWNDRGSVFPHRSNVIWEIKVLRKESMELVKLVTHNTTLNGKDTLHHWSWASDMPLECAIHFVEIRCYIDNLHFSGLEEWSDWSPVKNISWIPDSQTKVFPQDKVILVGSDITFCCVSQEKVLSALIGHTNCPLIHLDGENVAIKIRNISVSASSGTNVVFTTEDNIFGTVIFAGYPPDTPQQLNCETHDLKEIICSWNPGRVTALVGPRATSYTLVESFSGKYVRLKRAEAPTNESYQLLFQMLPNQEIYNFTLNAHNPLGRSQSTILVNITEKVYPHTPTSFKVKDINSTAVKLSWHLPGNFAKINFLCEIEIKKSNSVQEQRNVTIKGVENSSYLVALDKLNPYTLYTFRIRCSTETFWKWSKWSNKKQHLTTEASPSKGPDTWQKELAELRESTSQMHTASSLEKQIGHPSPPPEKKELRKVAHLTGKSNSRSMPLEWEDTYGIVLLSGVKYKKGGLVINETGLYFVYSKVYFRGQSCNNLPLSHKVYMRNSKYPQDLVMMEGKMMSYCTTGQMWARSSYLGAVFNLTSADHLYVNVSELSLVNFEESQTFFGLYKL
notes: as for B2
